For series [1], the system named is T1, three-finger peptide 1B-2A-3B (synthetic).
T1 sequence: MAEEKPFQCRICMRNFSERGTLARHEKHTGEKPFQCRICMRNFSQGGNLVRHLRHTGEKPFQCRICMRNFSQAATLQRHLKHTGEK
Description: binding assay. Particulars: protein details: fd phage pIII fusion, label: 5'-biotin, variant of p190 BCR-ABL cDNA fusion site oligo.

The chains behind the UniProt entries cited, without tags or fusion partners. Residues count along the entry.
UniProt P03001, 25-123: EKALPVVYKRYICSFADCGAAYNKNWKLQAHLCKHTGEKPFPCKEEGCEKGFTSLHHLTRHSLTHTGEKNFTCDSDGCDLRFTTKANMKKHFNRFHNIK

Series [2] deals with TFIIIA first three fingers (UniProt P03001). Description: pull-down. Particulars: phage returned versus free beads or non-specific DNA (range given for TFIIIA and Zif268 phage); protein details: fd phage pIII fusion; label: 5'-biotin.

Construct, isoform or probe ends are uncertain for at least one entry. For part of these data: Weaker means in comparison with the reference protein, sequence or condition of that experiment. For part of these data: Tags and fusion partners may be left off the protein sequences shown.

These results are taken from patent USRE42211.

On to “CCCCTTTCTCTTCCAGAAGCCCTTCAGCGGCCA (double strand) [genomic c-ABL intron 1/exon 2 junction oligo]”, for which the binding result in series [1] (discriminates against c-ABL) is reported as “binds more weakly”. Take “GAGACGCAGGTGAGTTCC (double strand) [genomic BCR exon 1/intron 1 junction oligo]”: the binding result in series [1] (discriminates against genomic BCR) is “binds more weakly”. For the sequence “TATGACTTGGATGGGAGACCGCCTGG / AATTCCAGGCGGTCTCCCATCCAAGTCA [TFIIIA site oligo]”, in series [2], the binding result is “binds”.
